# Reference: article PMC11190286
# Chains of the proteins cited; added tags and fusions are not shown.
# UniProt Q92794: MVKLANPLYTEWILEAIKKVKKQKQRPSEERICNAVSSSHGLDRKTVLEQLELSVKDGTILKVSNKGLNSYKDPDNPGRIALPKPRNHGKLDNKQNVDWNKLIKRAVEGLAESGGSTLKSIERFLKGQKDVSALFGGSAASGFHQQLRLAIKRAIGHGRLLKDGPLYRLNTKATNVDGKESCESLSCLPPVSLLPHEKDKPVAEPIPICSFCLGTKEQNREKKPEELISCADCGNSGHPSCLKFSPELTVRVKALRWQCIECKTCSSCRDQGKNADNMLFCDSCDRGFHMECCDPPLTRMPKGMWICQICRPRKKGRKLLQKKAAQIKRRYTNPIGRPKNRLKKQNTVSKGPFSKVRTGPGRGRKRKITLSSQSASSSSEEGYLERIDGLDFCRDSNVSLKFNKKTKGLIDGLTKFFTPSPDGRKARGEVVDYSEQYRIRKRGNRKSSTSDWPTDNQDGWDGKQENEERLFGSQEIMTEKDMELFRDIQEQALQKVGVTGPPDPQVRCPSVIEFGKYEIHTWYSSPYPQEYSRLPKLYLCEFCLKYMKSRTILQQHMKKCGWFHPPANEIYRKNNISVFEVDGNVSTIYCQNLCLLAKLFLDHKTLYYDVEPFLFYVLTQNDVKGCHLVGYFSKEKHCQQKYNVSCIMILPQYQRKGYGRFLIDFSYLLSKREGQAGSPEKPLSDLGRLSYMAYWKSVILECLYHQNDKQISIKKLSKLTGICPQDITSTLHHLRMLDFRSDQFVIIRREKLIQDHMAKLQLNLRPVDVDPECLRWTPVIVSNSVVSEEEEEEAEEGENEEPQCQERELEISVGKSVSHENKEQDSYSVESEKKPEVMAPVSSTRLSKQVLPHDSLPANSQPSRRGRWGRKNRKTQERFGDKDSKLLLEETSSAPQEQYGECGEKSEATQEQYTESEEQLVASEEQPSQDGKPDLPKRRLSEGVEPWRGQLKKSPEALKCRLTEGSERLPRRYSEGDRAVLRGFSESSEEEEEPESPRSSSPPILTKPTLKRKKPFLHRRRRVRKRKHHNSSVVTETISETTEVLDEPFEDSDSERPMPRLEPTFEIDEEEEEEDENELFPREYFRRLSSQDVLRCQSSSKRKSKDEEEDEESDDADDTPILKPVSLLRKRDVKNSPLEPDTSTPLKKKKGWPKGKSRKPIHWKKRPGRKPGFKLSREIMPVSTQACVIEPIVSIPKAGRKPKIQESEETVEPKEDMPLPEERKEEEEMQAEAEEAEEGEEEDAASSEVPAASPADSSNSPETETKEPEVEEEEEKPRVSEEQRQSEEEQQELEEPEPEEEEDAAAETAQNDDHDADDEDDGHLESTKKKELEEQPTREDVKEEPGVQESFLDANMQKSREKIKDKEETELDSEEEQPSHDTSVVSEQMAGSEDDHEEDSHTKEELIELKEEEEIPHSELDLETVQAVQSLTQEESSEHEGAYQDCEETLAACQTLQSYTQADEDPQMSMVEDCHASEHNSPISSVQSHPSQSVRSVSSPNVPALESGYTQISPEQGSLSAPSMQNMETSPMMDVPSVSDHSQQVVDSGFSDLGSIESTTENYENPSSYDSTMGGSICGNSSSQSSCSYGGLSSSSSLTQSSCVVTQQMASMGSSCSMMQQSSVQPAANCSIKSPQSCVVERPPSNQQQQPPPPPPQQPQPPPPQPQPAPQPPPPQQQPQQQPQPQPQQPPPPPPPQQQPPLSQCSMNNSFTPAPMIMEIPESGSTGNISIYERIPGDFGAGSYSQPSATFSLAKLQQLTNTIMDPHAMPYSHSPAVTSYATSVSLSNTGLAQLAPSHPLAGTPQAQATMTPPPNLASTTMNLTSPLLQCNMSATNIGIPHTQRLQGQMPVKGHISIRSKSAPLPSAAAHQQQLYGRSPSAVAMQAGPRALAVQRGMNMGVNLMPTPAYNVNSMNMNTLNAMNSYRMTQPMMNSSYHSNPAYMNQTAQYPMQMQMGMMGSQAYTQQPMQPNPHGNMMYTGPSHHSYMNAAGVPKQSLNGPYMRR
# UniProt P40763: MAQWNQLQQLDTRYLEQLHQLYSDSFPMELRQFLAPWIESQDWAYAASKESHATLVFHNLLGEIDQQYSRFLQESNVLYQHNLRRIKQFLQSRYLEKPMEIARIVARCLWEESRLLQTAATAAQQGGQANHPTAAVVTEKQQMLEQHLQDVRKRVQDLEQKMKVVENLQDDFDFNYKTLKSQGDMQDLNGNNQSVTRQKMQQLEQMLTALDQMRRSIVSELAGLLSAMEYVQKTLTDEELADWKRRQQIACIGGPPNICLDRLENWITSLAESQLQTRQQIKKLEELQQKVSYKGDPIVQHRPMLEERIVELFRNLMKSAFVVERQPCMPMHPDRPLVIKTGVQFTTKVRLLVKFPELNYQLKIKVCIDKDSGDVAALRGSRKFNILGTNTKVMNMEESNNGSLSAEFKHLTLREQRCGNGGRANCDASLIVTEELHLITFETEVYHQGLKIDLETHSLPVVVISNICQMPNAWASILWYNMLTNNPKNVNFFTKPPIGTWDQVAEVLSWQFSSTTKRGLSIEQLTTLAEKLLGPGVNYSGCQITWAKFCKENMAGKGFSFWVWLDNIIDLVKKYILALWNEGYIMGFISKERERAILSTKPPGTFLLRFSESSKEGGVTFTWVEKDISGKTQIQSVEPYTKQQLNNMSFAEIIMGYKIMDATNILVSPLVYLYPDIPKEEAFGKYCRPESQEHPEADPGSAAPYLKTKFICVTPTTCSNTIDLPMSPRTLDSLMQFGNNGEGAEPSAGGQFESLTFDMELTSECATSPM
# No constants are given. Whether binding was seen depends on the method and setting. In cells and extracts the contact can be indirect. Some entries that bind do so weakly or less than the wild type.
# Tests used:
# [1] = target: T1, citrine-PRMT2 (in HEK293 cells) (UniProt P55345); experiment: co-IP; HEK293 cells co-transfected with Myc-MOZ and citrine-PRMT2, 24 h; lysis in 10 mM Tris/HCl pH 7.5, 150 mM NaCl, 0.5 mM EDTA, 0.5% NP40; GFP-Trap magnetic beads 1 h at 4 °C (Myc-Trap also named)
# T1 sequence: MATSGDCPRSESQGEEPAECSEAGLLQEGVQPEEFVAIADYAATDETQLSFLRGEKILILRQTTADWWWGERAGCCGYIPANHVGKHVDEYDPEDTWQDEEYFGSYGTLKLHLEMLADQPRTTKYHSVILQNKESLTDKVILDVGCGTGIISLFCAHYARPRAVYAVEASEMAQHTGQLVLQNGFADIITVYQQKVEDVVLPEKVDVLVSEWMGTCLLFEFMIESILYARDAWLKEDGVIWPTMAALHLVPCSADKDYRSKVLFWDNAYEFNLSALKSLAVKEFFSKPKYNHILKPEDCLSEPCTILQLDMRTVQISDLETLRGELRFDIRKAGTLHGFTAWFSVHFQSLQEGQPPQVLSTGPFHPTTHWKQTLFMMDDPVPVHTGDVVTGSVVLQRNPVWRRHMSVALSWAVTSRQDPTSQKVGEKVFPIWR
# [2] = target: T2, citrine-PRMT2 (overexpressed in HL-60 cells) (UniProt P55345); experiment: co-IP; HL-60 cells overexpressing citrine-PRMT2; lysis in 10 mM Tris/HCl pH 7.5, 150 mM NaCl, 0.5 mM EDTA, 0.5% NP40; GFP-Trap magnetic beads 1 h at 4 °C
# T2 sequence: T1 sequence
binding [1],binding [2],Substance
binds,,Myc-MOZ (from UniProt Q92794 1-2004)
,no binding,STAT3 (from UniProt P40763 1-770)
